# The hits were mostly taken out for another list; the other results follow. Records with an inconclusive call do not appear. The source made the active and inactive calls. The call rests on the fitted dose curve; in most records, active means well fitted activation curve with a large enough effect; inconclusive means small, poorly fitted or top-dose-only effect, or another doubt; inactive means no such curve, though single readings can be large or run the other way.
# Test: Primary qHTS for Identification of Small Molecule Activators of Huntingtin-Antisense Promoter Activity; further: nearly all actives have a fitted effect of over 55% in size
# Settings: HEK293 HTT-AS promoter firefly luciferase reporter (activity 0% = vehicle and -100% = no light), 24 h; at 116 µM (top of the series)
# Description: Assay Provider: Russell L. Margolis M.D.
# Department Neurology, Johns Hopkins University School of Medicine, Baltimore, MD
# Huntington's Disease (HD) is a neurodegenerative disorder caused by a CAG repeat expansion in exon 1 of huntingtin (HTT). While there are currently no disease-modifying treatments for HD, recent efforts have focused on development of nucleotide-based therapeutics to lower HTT expression. As an alternative to siRNA or oligonucleotide methods, we hypothesized that suppression of HTT expression might be accomplished by small molecules that either (1) directly decrease HTT expression by suppressing HTT promoter activity or (2) indirectly decrease HTT expression by increasing the promoter activity of HTT-AS, the gene antisense to HTT that appears to inhibit expression of HTT. […]
# 7; Detection; Luminescence; FLuc […]
# 1; High-throughput screening, measuring luminescence from a Hek293 luciferase reporter, was performed in 1,536 well white-walled tissue-culture treated plates. […]
# 4; Cells were then incubated for 24 hours at 37 degrees C prior to luminescence measurements.
# 5; In all cases, luminescence was measured using the Dual-Glo Luciferase Reporter Assay System (Promega) following the manufacturer's instructions. […]
# 7; Luminescence signal was obtained using the PerkinElmer ViewLux plate reader. […]
row,SMILES,"activity change, positive = activation"
1,Nc1ccc(N)c([N+](=O)[O-])c1,inactive: -33.8%

# Source: PubChem BioAssay AID1508624 (National Center for Advancing Translational Sciences (NCATS), 2021)
